# Experimental data: article PMC7819943, “Rice protein-binding microarrays: a tool to detect cis-acting elements near promoter regions in rice”
# Amino acid sequences for entries named in this document (tags omitted).
# UniProt Q0JBA9, entry or part of it: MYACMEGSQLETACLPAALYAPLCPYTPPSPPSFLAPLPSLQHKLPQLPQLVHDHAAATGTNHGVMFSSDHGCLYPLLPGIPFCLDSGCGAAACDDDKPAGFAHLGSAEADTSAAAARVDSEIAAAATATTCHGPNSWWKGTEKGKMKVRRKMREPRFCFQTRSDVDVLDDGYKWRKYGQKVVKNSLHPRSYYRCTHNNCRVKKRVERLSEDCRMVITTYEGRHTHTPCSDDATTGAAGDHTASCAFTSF
# The list shows a part of the results.
# Biological target: OsWRKY34 (Oryza sativa, UniProt Q0JBA9 1-250)
# Test: protein-binding microarray (RPBM); PBS, 2% BSA, 51.3 ng/ul salmon testes DNA, 50 uM zinc acetate, 200 nM TF, 25 C, 1 h; high values mean tight binding
# Details: protein: recombinant; tags: N-terminal polyhistidine and DsRed monomer fusion (pET32a); label: CyDye5-dUTP incorporated in the synthesized complementary strand; 3' TTTTT single-stranded linker to array surface; dsDNA, one strand shown
# Outline: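 The binding signal is fluorescence intensity per array feature (arbitrary units). Readings came from an Axon 4000B scanner after a washed, 2% BSA-blocked, double-stranded custom Agilent array had been incubated for 1 h at 25 °C with 200 nM protein and 50 µM zinc acetate. The protein was a Ni–NTA-purified transcription factor fused N-terminally to polyhistidine and DsRed, expressed in E. coli BL21-CodonPlus.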
row,Sequence,binding signal
1,ACACCTACATATACACCACTCTGCCCTTTACGCCCGGGGACGGAGTCACCTAGTGCAG,8270 fluorescence intensity (a.u.)
2,GGCCTCTTATATAGGTGGGATGCACTGTGAGGAAAATTTTCGGAGTCACCTAGTGCAG,8480 fluorescence intensity (a.u.)
3,ATGCCTTTCTTGCCTTCCATGTTTCTTAAGCATAACTTCTCGGAGTCACCTAGTGCAG,13000 fluorescence intensity (a.u.)
4,GTTTAACCATTCATTTTATTCAATTTTTTATGTAAATATACGGAGTCACCTAGTGCAG,8290 fluorescence intensity (a.u.)
5,AGGGGTCTCTTCTTTTACTTTTGCTTACTTAGTTAAAATTCGGAGTCACCTAGTGCAG,9570 fluorescence intensity (a.u.)
6,GAGCGCCTCATCATCCGCCTGCACGCCGCCCTCGGCAACACGGAGTCACCTAGTGCAG,10200 fluorescence intensity (a.u.)
7,CTTCATACAGAGAAACAGGAATAGAGGCGAGGGGTGGGTTCGGAGTCACCTAGTGCAG,8300 fluorescence intensity (a.u.)
8,AATTTTAGGCCACATTGCATTATGTATAGTATGTCTTCTACGGAGTCACCTAGTGCAG,10100 fluorescence intensity (a.u.)
9,TTTTTCTTTTTATAAAATCATTTTAACTTTGTTTATTTCTCGGAGTCACCTAGTGCAG,8070 fluorescence intensity (a.u.)
10,TGTCGTCGACGACGTCGTTGATCCTGCGTCTTGCATTCTTCGGAGTCACCTAGTGCAG,9550 fluorescence intensity (a.u.)
11,TTGACTTTTTAGCACATGTTTGACCGTTCGTCTTATTCAACGGAGTCACCTAGTGCAG,8480 fluorescence intensity (a.u.)
12,TAAAACTAATACTACTTTTGATCATGCTCGGTCCTGAATTCGGAGTCACCTAGTGCAG,8890 fluorescence intensity (a.u.)
13,TAATATTATTGGTTCTCATCTTGACTTTTATCACCAGCTTCGGAGTCACCTAGTGCAG,12000 fluorescence intensity (a.u.)
14,ACCTGAGCCTACTATTCAAAGCACATCCATCCTTGGCAATCGGAGTCACCTAGTGCAG,9540 fluorescence intensity (a.u.)
15,ATTATCTTATGTTTTTGTACTTCTAGAACCCATACTACTTCGGAGTCACCTAGTGCAG,11000 fluorescence intensity (a.u.)
16,CGTTTGACCATTTTTCTTATTCAAAAATTTTGTACAAATACGGAGTCACCTAGTGCAG,10300 fluorescence intensity (a.u.)
17,AATCTCACGCACTGTCTCTCGTTCGCGCAAAGCACGCTGCCGGAGTCACCTAGTGCAG,8340 fluorescence intensity (a.u.)
18,AATCTCAGCTCCACTTGTCTCGTTGCCGACGCGTGTGTTTCGGAGTCACCTAGTGCAG,12300 fluorescence intensity (a.u.)
19,ACCGTTCCAATCGTACCCTGTACCTGCCCAACTTTAAAAACGGAGTCACCTAGTGCAG,8660 fluorescence intensity (a.u.)
20,TGCATGGAAATCGCCCGAGGGCCTGTCAATTTCTCACTCTCGGAGTCACCTAGTGCAG,8960 fluorescence intensity (a.u.)
21,CATCCTTGGCTCTGATAACTCCCAGGTTCTCATCTCTCACCGGAGTCACCTAGTGCAG,10900 fluorescence intensity (a.u.)

# 3 successive records out of the list so far, quoted:
row,Sequence,binding signal
16,CGTTTGACCATTTTTCTTATTCAAAAATTTTGTACAAATACGGAGTCACCTAGTGCAG,10300 fluorescence intensity (a.u.)
17,AATCTCACGCACTGTCTCTCGTTCGCGCAAAGCACGCTGCCGGAGTCACCTAGTGCAG,8340 fluorescence intensity (a.u.)
18,AATCTCAGCTCCACTTGTCTCGTTGCCGACGCGTGTGTTTCGGAGTCACCTAGTGCAG,12300 fluorescence intensity (a.u.)

# Additional records follow.

row,Sequence,binding signal
1,TGGCCCACTGTCAGCTATCTATTTCTCACCATCCTCAGTTCGGAGTCACCTAGTGCAG,11300 fluorescence intensity (a.u.)
2,TACAGTTTTCCCACAACCACTTTTTACCATCTGAATGATACGGAGTCACCTAGTGCAG,8170 fluorescence intensity (a.u.)
3,TGTGATTTGGTACATGCATGTTCTACTAAGTCTGTTTCTACGGAGTCACCTAGTGCAG,8780 fluorescence intensity (a.u.)
4,GATGGGGTGGCTTAGTGACGAAAAAAAGGTGTTCGTTATTCGGAGTCACCTAGTGCAG,9090 fluorescence intensity (a.u.)
5,ACCCACCCACCTGGCACCAATCTCGATGCAAATCCAACGGCGGAGTCACCTAGTGCAG,9630 fluorescence intensity (a.u.)
6,GGCCTGCTGCTGCTTTGGGTGGGCTGCCTCGTCACTAATCCGGAGTCACCTAGTGCAG,12300 fluorescence intensity (a.u.)
7,CAATGGGGTTCCTATATTTTGTTTCCTTCCTTCATGCCGACGGAGTCACCTAGTGCAG,8100 fluorescence intensity (a.u.)
8,GATCTCCCCAGCGCCACCTGCTCTCTTTGACTTGCAAACACGGAGTCACCTAGTGCAG,8390 fluorescence intensity (a.u.)
9,CATCCTTGCACTGGCCATCCCTTCCCCTACAGCTCTACTTCGGAGTCACCTAGTGCAG,8360 fluorescence intensity (a.u.)
10,TGGTGGGTGCCTTGACATCATGTGACTTTGATTGTTCTCCCGGAGTCACCTAGTGCAG,8430 fluorescence intensity (a.u.)
11,CGCCACGTGTCCTCATCTCGACGGTCGCACGTTCCCACCCCGGAGTCACCTAGTGCAG,8960 fluorescence intensity (a.u.)
12,AAATCCCCTTGTTACCGCGCGTTGTTTGGTTGTACCGCGCCGGAGTCACCTAGTGCAG,16600 fluorescence intensity (a.u.)
13,GACATCCTGCACTTCATCTATCTTCTAATCTGGACCATTTCGGAGTCACCTAGTGCAG,8450 fluorescence intensity (a.u.)
14,TCGAAATATTTGACACCGTTGACTTTTTAGCACATGTTTGCGGAGTCACCTAGTGCAG,35300 fluorescence intensity (a.u.)
15,CATGCGGGTCCCACACATGTTTTTTTTATTTTTTATATTTCGGAGTCACCTAGTGCAG,8300 fluorescence intensity (a.u.)
16,ATCTGCGTCTCCGCATCATCCAGCGCCTGCGTCTCTCCGTCGGAGTCACCTAGTGCAG,8900 fluorescence intensity (a.u.)
17,TATATTAACAAGTAATTTCTGTTTTGCATTCTTTTGTTCACGGAGTCACCTAGTGCAG,8680 fluorescence intensity (a.u.)
18,AATAACTAATTACATGGATTGCGACTACTTTGCGAGACGACGGAGTCACCTAGTGCAG,8290 fluorescence intensity (a.u.)
19,CGCTACTCCTATCCTATCACTGCACGCGTGGGCCAGCCGCCGGAGTCACCTAGTGCAG,8700 fluorescence intensity (a.u.)
20,CAACGTTTTTATATGGATTTGTTTGGCCAATTGTCACCACCGGAGTCACCTAGTGCAG,9240 fluorescence intensity (a.u.)
21,CTTCCATGTGCTTCGCTTGACATTTTTTTTTCTTCTTCTTCGGAGTCACCTAGTGCAG,8210 fluorescence intensity (a.u.)
